Results are given in words; binding and its absence hold for the method and conditions named. Some entries that bind do so weakly or less than the wild type.
Molecular target: PD-L1 (coated on the ELISA plate) (UniProt Q9NZQ7)
Test: ELISA, coated PD-L1, anti-HA detection

Amino acid sequences for entries named in this document (tags omitted).
UniProt Q9NZQ7: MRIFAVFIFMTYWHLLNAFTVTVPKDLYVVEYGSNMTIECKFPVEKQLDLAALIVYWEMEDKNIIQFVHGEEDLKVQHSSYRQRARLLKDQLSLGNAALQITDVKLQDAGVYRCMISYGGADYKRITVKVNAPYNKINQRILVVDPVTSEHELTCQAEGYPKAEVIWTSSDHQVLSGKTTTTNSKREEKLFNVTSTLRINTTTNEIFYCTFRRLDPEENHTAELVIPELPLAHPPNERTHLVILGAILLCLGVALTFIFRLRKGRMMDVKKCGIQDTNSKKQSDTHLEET

| binding | Binder |
| --- | --- |
| binds | Nanobody No. 1 (VHH, Expressed in E. coli WK6 and purified on a nickel column; not shown: HA and His tags (implied by anti-HA detection and nickel column)) VHH: QVQLQESGGGSVQTGGSLRLSCAASTSIYSNNYMAWFSQAPGKGREGVAAVYIDDGRPYYADSVKGRFTISLDSAKNTVYLQMNRLKPEDTAMYYCAAAPGPLSHNYWYTSANYDYWGQGTQVTVSS |
| binds | Nanobody No. 3 (VHH, Expressed in E. coli WK6 and purified on a nickel column; not shown: HA and His tags (implied by anti-HA detection and nickel column)) VHH: QVQLQESGGGSVQTGGSLRLSCTASTSIYSNNYMAWFSQSPGKGREGVAAVYMDDGRPYYADSVKGRFTISLDSAKNTMYLQMNSLKPEDTAMYYCAAAPGPLSRNYWYTSANYDYWGQGTQVTVSS |
| binds | Nanobody No. 2 (VHH, Expressed in E. coli WK6 and purified on a nickel column; not shown: HA and His tags (implied by anti-HA detection and nickel column)) VHH: QVQLQESGGGSVQAGGSLRLSCAASGYTYSSDGMGWFRQTPGKEREGVAAISPTGRRTEYADSVKGRFTISRDNNKNMLSLQMNSLKPEDTGMYYCAREGSWSFSLANSAVRSWGQGTQVTVSS |

— patent US20200276330A1 (NANOMAB TECHNOLOGY, published 2020)
